# Source: PubChem BioAssay (Tox21)
# This list holds what a sample rich in hits left over. Inconclusive results are not listed. Activity calls are given as the source filed them. Unless noted, the call rests on the fitted dose curve.
# Assays:
# [1] = Nuclear factor erythroid 2-related factor 2/antioxidant responsive element (Nrf2/ARE) small molecule agonists: qHTS cell viability counter screen in human keratinocytes (AID 1919968; active means well fitted cell-killing curve with a large enough effect in the repeat runs; further: nearly all actives have a fitted effect of over 55% in size); details: KeratinoSens HaCaT ARE cells viability, CellTiter-Fluor, 24 h; at 92.4 µM (top of the series)
# Procedure, shortened: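 HaCaT ARE reporter line, 1,500 cells/well; 5 h settle, 37 C/5% CO2; cpd in DMSO pinned; 23 h exposure; CellTiter-Fluor, 1 h; fluorescence.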
# [2] = Nuclear factor erythroid 2-related factor 2/antioxidant responsive element (Nrf2/ARE) small molecule agonists: luciferase reporter gene qHTS assay in human keratinocytes (AID 1919969); details: KeratinoSens HaCaT ARE-luciferase, luminescence, 24 h; at 92.4 µM (top of the series); further: nearly all actives have a fitted effect of over 35% in size
# Description: National Center for Advancing Translational Sciences [NCATS]
# Division of Preclinical Innovation [DPI]
# U.S. Environmental Protection Agency [EPA]
# National Institutes of Environmental Health Sciences [NIEHS]
# National Toxicology Program [NTP]
# U.S. Food and Drug Administration [FDA]
# Oxidative stress has been implicated in the pathogenesis of a variety of diseases ranging from cancer to neurodegeneration. The antioxidant response element (ARE) signaling pathway plays an important role in the amelioration of oxidative stress. The KeratinoSens (Givaudan, Switzerland) is an in vitro test method which quantifies luciferase induction as a measure of activation of Keap1-Nrf2-antioxidationt/electrophile response element (ARE) dependant pathway in HaCaT human keratinocytes stably transfected with a selectable plasmid. […] The activation of the report gene under culture conditions can be detected by ONE-Glo Luciferase Assay System (Promega, Madison, WI). […]
# HaCaT derived cell line KeratinoSens were dispensed at 1,500 cells/5uL/well in 1536-well white wall/solid bottom plates using a Multidrop Combi (ThermoFisher Scientific, Waltham, MA) dispenser. […] The plates were incubated at 37 C/5% CO2 for 23 h, followed by addition of 1uL/well of CellTiter-Fluor reagent into the assay plates using a Flying Reagent Dispenser (Aurora Discovery, San Diego, CA) for cell viability readout that measures cytotoxicity. […]
# On the % scale 0 is the no-effect control and ±100 the full control effect.
smiles,measurement,setting,value
CN1CC[C@]23c4c5ccc(O)c4O[C@H]2[C@@H](O)C=C[C@H]3[C@H]1C5,"activity change, negative = cytotoxicity",[1],inactive: -0.224%
same,"activity, positive = activation",[2],inactive: 2.58%
